Experimental data reported in paper PMC7819943, “Rice protein-binding microarrays: a tool to detect cis-acting elements near promoter regions in rice”.
This is one part of the list.

Chains of the proteins cited; added tags and fusions are not shown.
UniProt Q0JBA9, entry or part of it: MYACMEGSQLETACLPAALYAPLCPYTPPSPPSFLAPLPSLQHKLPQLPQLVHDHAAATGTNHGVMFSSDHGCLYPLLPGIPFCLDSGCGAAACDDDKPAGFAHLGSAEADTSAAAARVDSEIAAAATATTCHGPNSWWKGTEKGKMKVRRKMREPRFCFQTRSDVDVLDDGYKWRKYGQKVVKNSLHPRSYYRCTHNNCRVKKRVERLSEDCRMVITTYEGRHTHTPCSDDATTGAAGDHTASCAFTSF

The sequences below were run against OsWRKY34 (Oryza sativa, UniProt Q0JBA9 1-250) (assay: protein-binding microarray (RPBM); PBS, 2% BSA, 51.3 ng/ul salmon testes DNA, 50 uM zinc acetate, 200 nM TF, 25 C, 1 h; high values mean tight binding). Settings: protein: recombinant; tags: N-terminal polyhistidine and DsRed monomer fusion (pET32a); label: CyDye5-dUTP incorporated in the synthesized complementary strand; 3' TTTTT single-stranded linker to array surface; dsDNA, one strand shown.
How it was run: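 Transcription factors were made in E. coli BL21-CodonPlus as N-terminal fusions to a polyhistidine tag and DsRed, then purified on Ni–NTA. After primer extension with Cy5-dUTP and blocking with 2% BSA, a custom Agilent array was exposed for 1 h at 25 °C to 200 nM protein in PBS, 2% BSA, salmon testes DNA and 50 µM zinc acetate. Washed arrays were scanned on an Axon 4000B, and the binding signal is per-feature fluorescence intensity in arbitrary units.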
For “GCAGAGCATTCCTATCTACTTCGCCTCAGCTTCCTGCACCCGGAGTCACCTAGTGCAG”, the binding signal was 8290 fluorescence intensity (a.u.). In the case of “ATTTTTTTAAAAAAAATTGATTAATATGATTTTTAAAACACGGAGTCACCTAGTGCAG”, the binding signal is reported as 11800 fluorescence intensity (a.u.). In the case of “TCTAGGGTGTTGCAACCAAATTCTTCGAGTGTTGTATCTCCGGAGTCACCTAGTGCAG”, the binding signal is reported as 8960 fluorescence intensity (a.u.). “GTTCCATCTGATTCTAGGGGTTGGTTTGGTTCGTGGCCTACGGAGTCACCTAGTGCAG” was tested, and the binding signal was 11400 fluorescence intensity (a.u.). In the case of “ACATTCAGGTCCTCATCGGTTGCTCATATTTTTAATAAGACGGAGTCACCTAGTGCAG”, the binding signal is reported as 8800 fluorescence intensity (a.u.). “TAATACTACTACTCCTACCCTGACGCGTGACCCGGCCGGTCGGAGTCACCTAGTGCAG” was tested, and the binding signal was 8600 fluorescence intensity (a.u.). In the case of “CTGTATTCATTCTTTCCATTGGTATCTGATTTTGCGGAAGCGGAGTCACCTAGTGCAG”, the binding signal is reported as 10800 fluorescence intensity (a.u.). In the case of “TTGTAGTCCGCTGCTTTCCCTTTCTTTTATCTTCTCTTTCCGGAGTCACCTAGTGCAG”, the binding signal is reported as 8450 fluorescence intensity (a.u.). “ATCTCATGGGTGAATCCATTCATCGATAGTGTGGTTTTGTCGGAGTCACCTAGTGCAG” was tested, and the binding signal was 9650 fluorescence intensity (a.u.). With “CATCTTCTTGCTCGTACAACGTAAATACTCGTACTACTACCGGAGTCACCTAGTGCAG” the binding signal was 8830 fluorescence intensity (a.u.). In the case of “GCGCAGTGGTCGTCGCCCTCGTTGTTTACTTTGCTTAATTCGGAGTCACCTAGTGCAG”, the binding signal is reported as 13300 fluorescence intensity (a.u.). With “TAGATCTATATTTTTTTTCCTTTTTCTTTCAAATGTGTATCGGAGTCACCTAGTGCAG” the binding signal was 8260 fluorescence intensity (a.u.). In the case of “CTCGTCCGGCCCACCGCTCCTCCTCGAGCAGCCTCTTCCTCGGAGTCACCTAGTGCAG”, the binding signal is reported as 8510 fluorescence intensity (a.u.). “AATCTAACGCGGTAACTTTTTCCAGCCTGGGTTTTTGCATCGGAGTCACCTAGTGCAG” was tested, and the binding signal was 9560 fluorescence intensity (a.u.). In the case of “TGCCTCTCACGTACTGACACTGTTGCGCACACGCACGCACCGGAGTCACCTAGTGCAG”, the binding signal is reported as 9670 fluorescence intensity (a.u.). With “GTTGTTTGGTTGCGTGAGGAGAGGAGGAGGAGGAGGAGGACGGAGTCACCTAGTGCAG” the binding signal was 8200 fluorescence intensity (a.u.). With “GGGCTGTTATCTCTGATGTGTTTTCTGCCTCTCATGTCATCGGAGTCACCTAGTGCAG” the binding signal was 17000 fluorescence intensity (a.u.). “AATAGCTGAATAGCACATCGCCATCACAATGCCAGCGCCTCGGAGTCACCTAGTGCAG” was tested, and the binding signal was 8610 fluorescence intensity (a.u.). For “CAGATTAATTGTTATTCATATATATACATTGACACTCGTTCGGAGTCACCTAGTGCAG”, the binding signal was 8330 fluorescence intensity (a.u.). In the case of “TGTTCTGGGTGTAGTGGTTGTGCTGGTTTCTTTAATGGAACGGAGTCACCTAGTGCAG”, the binding signal is reported as 8940 fluorescence intensity (a.u.). “CAGCACAAGTGTCGTCGTCTCTCCGTTTCTTGTGCAGTTTCGGAGTCACCTAGTGCAG” was tested, and the binding signal was 12100 fluorescence intensity (a.u.). “GCATACATACATACATACATACCCACCAGCTGATCGATGGCGGAGTCACCTAGTGCAG” was tested, and the binding signal was 8080 fluorescence intensity (a.u.). “TCACCAGTCATTACACTCTGCCATTTCCTTATCCAGTTATCGGAGTCACCTAGTGCAG” was tested, and the binding signal was 12600 fluorescence intensity (a.u.). “ACGTGAAGTTTGACTCCTTTTGATATATTATCGTTTTAAACGGAGTCACCTAGTGCAG” was tested, and the binding signal was 8360 fluorescence intensity (a.u.). For “CCTTTTCAGTTACTCATCAATTACCTTTTAGTTTTTGTCACGGAGTCACCTAGTGCAG”, the binding signal was 8650 fluorescence intensity (a.u.). “TCATTCATCATCAGCAGCAGTCAGTCCATCCAACGCGTCTCGGAGTCACCTAGTGCAG” was tested, and the binding signal was 11000 fluorescence intensity (a.u.). For “TTTAATATATAACACCGTTGACTTTTTATCAAACGTTTGACGGAGTCACCTAGTGCAG”, the binding signal was 23400 fluorescence intensity (a.u.). “AGAGTTTTTTTTACGGATAGCGTACTCATCTAATCTACCACGGAGTCACCTAGTGCAG” was tested, and the binding signal was 9030 fluorescence intensity (a.u.). For “GTGGTGGTGTGTAGGCTGCAGCTGCATTTCATCCCGGGAGCGGAGTCACCTAGTGCAG”, the binding signal was 9700 fluorescence intensity (a.u.). For “GAAAGTGGGAGAGAGAATAGGTTGGGGTGGTTGGTTTGGGCGGAGTCACCTAGTGCAG”, the binding signal was 14700 fluorescence intensity (a.u.). For “GCATGAGGTTTGCCGTTTTGTCCCTTTCTGTTACTTTTTTCGGAGTCACCTAGTGCAG”, the binding signal was 11100 fluorescence intensity (a.u.). For “CATTTTTACATCACCCCAAACCCCATCATTTCTTGCTTCCCGGAGTCACCTAGTGCAG”, the binding signal was 10900 fluorescence intensity (a.u.). “GTCTTCCGCGGCGGCGGCGGGGAAGCGGGCGCGGGCGGGGCGGAGTCACCTAGTGCAG” was tested, and the binding signal was 13800 fluorescence intensity (a.u.). With “ACCTTAATCGATCTTAATTAATCGCTAACCTTTATGTCATCGGAGTCACCTAGTGCAG” the binding signal was 8980 fluorescence intensity (a.u.). With “CAGTAACAAGTGCATGCCTCATCTGTCTTGTACTTATCTTCGGAGTCACCTAGTGCAG” the binding signal was 8460 fluorescence intensity (a.u.). “GTCCATTGATTTCTCGCCGCGCTTAATTTGTCCTCCGATCCGGAGTCACCTAGTGCAG” was tested, and the binding signal was 10500 fluorescence intensity (a.u.). In the case of “TCTCCTTTTAATCTAGCCACCATTTTAATCCCTGTGGCTTCGGAGTCACCTAGTGCAG”, the binding signal is reported as 9170 fluorescence intensity (a.u.). For “CGGACGCTTCTTCTCTTCGCCGCCTATTTCTTCAGCTCCTCGGAGTCACCTAGTGCAG”, the binding signal was 8150 fluorescence intensity (a.u.). “CAATATATGCTTTGAGGTGGCTCTCTCTCTCTCTCTCTCTCGGAGTCACCTAGTGCAG” was tested, and the binding signal was 8130 fluorescence intensity (a.u.). In the case of “TGCACAATTGTATTTCTTTTAAGCTAAAAGGGGATTTATACGGAGTCACCTAGTGCAG”, the binding signal is reported as 8260 fluorescence intensity (a.u.). With “TCAAGCCTTTTCGACGAGCTTACGGCAATTGCTTCGTTCACGGAGTCACCTAGTGCAG” the binding signal was 8500 fluorescence intensity (a.u.). With “TTAGGGGTTTTCGTTATACTGTAAGTATGTCTTTTTATTTCGGAGTCACCTAGTGCAG” the binding signal was 11500 fluorescence intensity (a.u.).
